Data as given in PubChem BioAssay AID1508588 (Peter MacCallum Cancer Centre, 2020).
Screen: 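Which gene losses make BRAF-mutant melanoma cells more responsive to vemurafenib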 (primary screen). Cell system: human WM266.4 melanoma cells (BRAF V600 mutant). Knock-down reagent: siRNA pool against human genes, 40 nM. Duration: 96 h from transfection to read-out. Challenge: vemurafenib 300 nM (about IC25), added 48 h after transfection, for 48 h; comparison arm got DMSO vehicle only. Measurement: 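Cell gain (DAPI nuclei at end minus before drug, mean of two replicates) and medium lactate by absorbance per cell, both as ratio to non-targeting siRNA, also grouped into fold-change classes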. Direction: cell gain with vemurafenib: higher = more cell gain than with non-targeting siRNA; lactate per cell with vemurafenib: higher = more lactate made per cell. Active means: 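Enhancement is called by pairing each knock-down's vehicle-arm and drug-arm fold-change classes for viability or glycolysis; which class combinations qualify is not given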. Meaning of the calls: active = enhances vemurafenib effect; inactive = no enhancement seen.
Shown is an unselected part of about 18,000 reagents tested. Over the whole deposit, 790 (4.4%) were called active. 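Calls rest on a combination of fold-change classes in drug and vehicle arms, not all shown here.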 Entries without a mark were called inactive.

gene knocked down	cell gain with vemurafenib	lactate per cell with vemurafenib
CUTA	0.43	1.27
IQCF1	1.28	0.62
BOD1	0.37	0.9
SKIC2	0.38	1.17
GARNL3	0.69	0.48
HMX1	0.75	0.92
GPBAR1	0.85	0.68
MCHR2	0.22	0.76
ZNF678	0.38	0.94
COPS3	0.56	0.71
LOC389834	0.37	2.27
RPF2	0.8	0.94
LDLRAD3	0.23	1.19
TLR9	0.26	0.76
MAGI2	0.61	1.31
AMACR	0.85	0.48
PPP1R3B	0.07 (active)	0.6
PRR34	0.76	0.65
CP	1.03	0.93
NDUFB5	0.39	1.86
HYAL3	0.4	2.29
GPR153	0.01	2.25
GPIHBP1	0.71	1
ORAI2	0.14	1.73
ARVCF	0.89	0.64
ENKUR	0.66	0.98
UNC79	0.21	1.72
XBP1	0.82	0.87
PHLDA1	0.26	0.96
WNT6	0.9	0.68
FCRL6	0.38	1.4
OR10K2	0.26	1.08
LRRC57	0.89	0.98
SLC30A8	1	0.58
RBMXL2	1.36	0.96
HEATR3	0.59	0.48
DEFB113	1.12	0.8
FER1L5	0.7	1.67
IL10RA	0.25	0.77
MORC2	0.68	0.8
H2AX	0.11	1.38
CSPG4	0.77	1.27
TSPAN5	0.21	1.1
PNRC2	1.28	0.68
RNF26	1.14	0.84
PGD	0.39	-0.06
DDX1	0.28	1.25
PPP2R3B	0.09	0.53
RNASEH1	1.37	0.53
IHO1	1.08	1.07
EPHA7	0.44	1.4

Continued; the last 4 above are carried over.
gene knocked down	cell gain with vemurafenib	lactate per cell with vemurafenib
PPP2R3B	0.09	0.53
RNASEH1	1.37	0.53
IHO1	1.08	1.07
EPHA7	0.44	1.4
FBRS	0.27	1.1
CDKL5	0.43	0.6
FAM178B	0.69	0.97
OSM	0.48	1.24
COX5A	1.02	1.21
PSMD2	-0.12	3.59
ZNF429	0.88	0.66
LGI3	0.74	1.16
NKAIN1	0.97	1.23
CDK8	1.04	0.66
EME1	-0.1	1.88
TPD52L1	0.31	0.88
H2BC15	0.38	1.92
MTMR2	0.46	0.6
GAS6	0.88	1.29
FUNDC1	1.09	0.76
ZNF671	0.5	1.14
ABHD13	0.41	0.93
PHLDB2	0.86	0.92
C3	0.77	0.87
PCDHB11	0.69	0.84
SLAMF1	0.72	0.98
CCDC142	0.64	0.62
VPREB1	1.09	0.76
SSX9P	0.85	0.78
DDX19B	0.15	3.15
FRMD1	0.37	1.86
PROX2	0.77 (active)	0.17
TNIP1	1.09	0.77
ATP11AUN	1.06	0.62
PGAP3	0.63	0.66
IL23R	0.75	0.96
GLYATL1	0.15	1.18
